This is one part of the list.
molecular target: T1, OsSMF1 (Oryza sativa, UniProt Q6ZLB0 1-436); test: protein-binding microarray (RPBM); PBS, 2% BSA, 51.3 ng/ul salmon testes DNA, 50 uM zinc acetate, 200 nM TF, 25 C, 1 h; high values mean tight binding; details: protein: recombinant; tags: N-terminal polyhistidine and DsRed monomer fusion (pET32a); chain copies: 2; label: CyDye5-dUTP incorporated in the synthesized complementary strand; 3' TTTTT single-stranded linker to array surface; dsDNA, one strand shown
T1 sequence: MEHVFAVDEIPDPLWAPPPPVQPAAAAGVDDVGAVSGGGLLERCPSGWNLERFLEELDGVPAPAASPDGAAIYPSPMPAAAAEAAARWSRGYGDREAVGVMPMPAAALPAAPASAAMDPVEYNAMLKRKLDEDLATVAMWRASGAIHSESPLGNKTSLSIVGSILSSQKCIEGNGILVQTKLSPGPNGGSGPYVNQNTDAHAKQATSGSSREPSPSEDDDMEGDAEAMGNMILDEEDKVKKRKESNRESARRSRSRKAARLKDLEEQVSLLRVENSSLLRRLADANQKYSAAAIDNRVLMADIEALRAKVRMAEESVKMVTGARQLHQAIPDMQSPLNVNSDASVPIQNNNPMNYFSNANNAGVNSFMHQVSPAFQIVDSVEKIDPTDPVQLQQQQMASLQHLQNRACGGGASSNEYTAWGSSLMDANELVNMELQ
Method in brief: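 Binding signal is reported as fluorescence intensity per feature (arbitrary units) from an Axon 4000B scanner. Incubation used 200 nM of each Ni–NTA-purified, N-terminally polyhistidine- and DsRed-fused transcription factor from E. coli BL21-CodonPlus on a double-stranded custom Agilent array for 1 h at 25 °C, with 50 µM zinc acetate in the buffer, followed by washing.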

For “TTGGGACGGAAGAAGTAGGTATTTAGGAAGCAGTACTGGGCGGAGTCACCTAGTGCAG”, which binding signal is on record?
Its binding signal is 28800 fluorescence intensity (a.u.).

How did the binding signal turn out when “GCGAGCTACTACCACGCTAGGCTGCCATAGAGGGTAGTCGCGGAGTCACCTAGTGCAG” was run?
The binding signal was 7190 fluorescence intensity (a.u.).

With “GACCCACATGGGGCCCACGCTGACTCACCCGCCACGTTAGCGGAGTCACCTAGTGCAG” as the sequence, how does the binding signal read?
The binding signal was 19000 fluorescence intensity (a.u.).

Which binding signal does the source give for “TGCTCCAATCAATTGAGCAATAATACAGTATAGAACATTGCGGAGTCACCTAGTGCAG” here?
Its binding signal is 3610 fluorescence intensity (a.u.).

For “TACCTAGTTCATGACATCATGAGACGAAATCGCTATCGGCCGGAGTCACCTAGTGCAG”, which binding signal is on record?
Its binding signal is 5250 fluorescence intensity (a.u.).

How did the binding signal turn out when “GACGAGCATTCCTGCCGTTCCCGGTACACGTCGTCCCTCTCGGAGTCACCTAGTGCAG” was run?
Its binding signal is 3620 fluorescence intensity (a.u.).

Which binding signal does the source give for “GAGCGAACGGCCGTCTGCCACGTCCTATTCGCCGCCCTTTCGGAGTCACCTAGTGCAG” here?
The binding signal was 11900 fluorescence intensity (a.u.).

For “TTCCATCCGTTTCTTCGCATGTGACAGCTCATCCACACCGCGGAGTCACCTAGTGCAG”, which binding signal is on record?
The binding signal was 6730 fluorescence intensity (a.u.).

For “GGATATCCCGGTTTGCGTCCTGCCTGACTGAATATGTGTGCGGAGTCACCTAGTGCAG”, which binding signal is on record?
Its binding signal is 5190 fluorescence intensity (a.u.).

For “TCTTTTGGTGGTTTCAGAAGCGGTTTTATCCTACGTGACACGGAGTCACCTAGTGCAG”, which binding signal is on record?
Its binding signal is 4530 fluorescence intensity (a.u.).

With “TTTAGAGAAGGGCACTACATCCAACCGGATATATATAACCCGGAGTCACCTAGTGCAG” as the sequence, how does the binding signal read?
Its binding signal is 3310 fluorescence intensity (a.u.).

“TGGAAAATGGGGAGGTGGGATTATAATTGGAAAATAAATGCGGAGTCACCTAGTGCAG” was tested. Which binding signal did it give?
Its binding signal is 3650 fluorescence intensity (a.u.).

How did the binding signal turn out when “TTTCGTCATGTCTTCATCTTCGGTTGCTAGGTCACGCCGTCGGAGTCACCTAGTGCAG” was run?
The binding signal was 3540 fluorescence intensity (a.u.).

“GTGATCAAGCAAGCAAACAGCACAGCGTGGACTGATTACTCGGAGTCACCTAGTGCAG” was tested. Which binding signal did it give?
The binding signal was 3990 fluorescence intensity (a.u.).

“CAACACCCCTCGACACGTCGTTCATGCTCATTCGCGTACCCGGAGTCACCTAGTGCAG” was tested. Which binding signal did it give?
The binding signal was 5690 fluorescence intensity (a.u.).

Which binding signal does the source give for “GCACGATGATTTTAGTGGCTTTGTTGGCGCGAGTTGGGTGCGGAGTCACCTAGTGCAG” here?
Its binding signal is 3630 fluorescence intensity (a.u.).

How did the binding signal turn out when “CTCTCGAGCATCAGCACGTGGCGCGCACGTGGCCAGCCAACGGAGTCACCTAGTGCAG” was run?
The binding signal was 5170 fluorescence intensity (a.u.).

How did the binding signal turn out when “CTAGCAGCTGCTTGCTGTTCGTGGTGCGTACGTGTCATGACGGAGTCACCTAGTGCAG” was run?
Its binding signal is 9420 fluorescence intensity (a.u.).

For “GTTCCTATTACCACTTCCCAACGAACTAACCGAAGCCCCGCGGAGTCACCTAGTGCAG”, which binding signal is on record?
Its binding signal is 10100 fluorescence intensity (a.u.).

For “ATCGCCGTCCGCGCCGCGCCAGGTCGCCGCGCTGCCCCGTCGGAGTCACCTAGTGCAG”, which binding signal is on record?
The binding signal was 3420 fluorescence intensity (a.u.).

“TCTCCTCCCTGCCTCTTGACTGTTGTCACTTGACTCTTCGCGGAGTCACCTAGTGCAG” was tested. Which binding signal did it give?
Its binding signal is 3420 fluorescence intensity (a.u.).

For “TCCGCTAAGTCAATCCTACCGCCTCGCCTCATCTCCGTCACGGAGTCACCTAGTGCAG”, which binding signal is on record?
Its binding signal is 3320 fluorescence intensity (a.u.).

“CTCCATTTTCTCCGGTTTTCGCCGCAGAGTAGGAGCTGAACGGAGTCACCTAGTGCAG” was tested. Which binding signal did it give?
The binding signal was 21400 fluorescence intensity (a.u.).

Which binding signal does the source give for “GGGGCGGGAGCGGGAGGGCGGCGTCGGCGAGTAGGAGGTGCGGAGTCACCTAGTGCAG” here?
The binding signal was 4700 fluorescence intensity (a.u.).

With “TTTCTCCTTGCACAGCTGGTGCCACTCCTGCAGCACGGCGCGGAGTCACCTAGTGCAG” as the sequence, how does the binding signal read?
The binding signal was 3390 fluorescence intensity (a.u.).

How did the binding signal turn out when “AAATTAAATTGCGTAGCAATGTGGCATGTAGGTAGTAATGCGGAGTCACCTAGTGCAG” was run?
The binding signal was 3600 fluorescence intensity (a.u.).

Which binding signal does the source give for “TGGCTGGTTGGGAGGGGACAGCACATGATGCTGTAGTTTTCGGAGTCACCTAGTGCAG” here?
Its binding signal is 3510 fluorescence intensity (a.u.).

With “TTTGATGCTCCATACATGTGTCCAAACATTTGATGTGACGCGGAGTCACCTAGTGCAG” as the sequence, how does the binding signal read?
The binding signal was 3680 fluorescence intensity (a.u.).

With “TGTGCAACTCAATCAATCCAAAACACGTCCCTTGTCATTCCGGAGTCACCTAGTGCAG” as the sequence, how does the binding signal read?
The binding signal was 4480 fluorescence intensity (a.u.).

Which binding signal does the source give for “GGCTGGTAAGTCGGAGTCGTCGGCATGACGCCGCCTTGCTCGGAGTCACCTAGTGCAG” here?
Its binding signal is 5330 fluorescence intensity (a.u.).

How did the binding signal turn out when “TGGAACATGCATGTGATCGAGTGGCTTGATCTCTAGTTAACGGAGTCACCTAGTGCAG” was run?
Its binding signal is 12100 fluorescence intensity (a.u.).

Which binding signal does the source give for “AGTAACCTTGCTGGCGATGTCATCGGTCTACTCCTTAGCACGGAGTCACCTAGTGCAG” here?
Its binding signal is 3380 fluorescence intensity (a.u.).

For “TATTTGGAACTGTGCCATTATAATTTTACACATATTTGAGCGGAGTCACCTAGTGCAG”, which binding signal is on record?
The binding signal was 4030 fluorescence intensity (a.u.).

How did the binding signal turn out when “ACATGTGCATCGAATCCGCATGGCTAGGAACGTAATTGTGCGGAGTCACCTAGTGCAG” was run?
The binding signal was 34800 fluorescence intensity (a.u.).

“CAAATACTACATCACACAGGTCAGCAGAAATTTCACTCTTCGGAGTCACCTAGTGCAG” was tested. Which binding signal did it give?
The binding signal was 4100 fluorescence intensity (a.u.).

How did the binding signal turn out when “ACAACTCAAATAATGTACACATAAAACATTTCTAGCTTTTCGGAGTCACCTAGTGCAG” was run?
The binding signal was 3320 fluorescence intensity (a.u.).

How did the binding signal turn out when “GCCGTCCGATCGTCATCGAGAGAAGATCTGGGCCGTCCATCGGAGTCACCTAGTGCAG” was run?
Its binding signal is 3380 fluorescence intensity (a.u.).

With “CAACACTTAATTATTTGCAATTAATCTAATTGCATATATACGGAGTCACCTAGTGCAG” as the sequence, how does the binding signal read?
Its binding signal is 3560 fluorescence intensity (a.u.).

For “ACCCAATAAGTCCAGCTAACTTGCTTACATGGCCACTACACGGAGTCACCTAGTGCAG”, which binding signal is on record?
The binding signal was 4300 fluorescence intensity (a.u.).

With “ATTCCGCCTGAACCCCACACCCGGATTCCGCCGTCAGCCACGGAGTCACCTAGTGCAG” as the sequence, how does the binding signal read?
Its binding signal is 4090 fluorescence intensity (a.u.).

For “GAACAAAATAACTTGGGAGAGTATTTGGGCAACTTTCGGTCGGAGTCACCTAGTGCAG”, which binding signal is on record?
The binding signal was 18900 fluorescence intensity (a.u.).

“CCCACCGATCAGACAGTGGGCCCTTCATGGGCCCACGCCACGGAGTCACCTAGTGCAG” was tested. Which binding signal did it give?
Its binding signal is 3470 fluorescence intensity (a.u.).
